This passage reports binding results from article PMC9682754.

No constants are given. Whether binding was seen depends on the method and setting. In cells and extracts the contact can be indirect. Some binding calls cover weakened binding; strength is not graded here.

Experiment [1] concerns the target T1, CD6 cytosolic deletion mutant CD6Δcyt (UniProt P30203).
T1 sequence: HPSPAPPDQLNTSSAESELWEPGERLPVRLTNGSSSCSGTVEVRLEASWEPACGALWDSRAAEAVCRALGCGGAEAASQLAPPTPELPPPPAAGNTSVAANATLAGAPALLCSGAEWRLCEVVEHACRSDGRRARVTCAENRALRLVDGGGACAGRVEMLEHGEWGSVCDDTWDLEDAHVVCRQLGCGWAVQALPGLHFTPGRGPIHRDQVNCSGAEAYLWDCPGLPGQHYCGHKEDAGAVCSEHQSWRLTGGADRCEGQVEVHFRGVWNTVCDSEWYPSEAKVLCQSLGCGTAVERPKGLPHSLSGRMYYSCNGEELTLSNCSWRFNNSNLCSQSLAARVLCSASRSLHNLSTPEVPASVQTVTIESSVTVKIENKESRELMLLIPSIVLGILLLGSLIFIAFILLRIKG
Briefly: co-IP; E6.1 cells activated with pervanadate for 5 min at 37 °C; lysed in 1% Triton X-100, 10 mM Tris-Cl pH 7.4, 150 mM NaCl, 1 mM EDTA, 1 mM PMSF, 1 mM orthovanadate; CD6 immunoprecipitated with mAb MEM98 on Protein A Sepharose; RasGAP detected by western blot.

Experiment [2] deals with T2, CD6 wild-type (CD6WT) (UniProt P30203).
T2 sequence: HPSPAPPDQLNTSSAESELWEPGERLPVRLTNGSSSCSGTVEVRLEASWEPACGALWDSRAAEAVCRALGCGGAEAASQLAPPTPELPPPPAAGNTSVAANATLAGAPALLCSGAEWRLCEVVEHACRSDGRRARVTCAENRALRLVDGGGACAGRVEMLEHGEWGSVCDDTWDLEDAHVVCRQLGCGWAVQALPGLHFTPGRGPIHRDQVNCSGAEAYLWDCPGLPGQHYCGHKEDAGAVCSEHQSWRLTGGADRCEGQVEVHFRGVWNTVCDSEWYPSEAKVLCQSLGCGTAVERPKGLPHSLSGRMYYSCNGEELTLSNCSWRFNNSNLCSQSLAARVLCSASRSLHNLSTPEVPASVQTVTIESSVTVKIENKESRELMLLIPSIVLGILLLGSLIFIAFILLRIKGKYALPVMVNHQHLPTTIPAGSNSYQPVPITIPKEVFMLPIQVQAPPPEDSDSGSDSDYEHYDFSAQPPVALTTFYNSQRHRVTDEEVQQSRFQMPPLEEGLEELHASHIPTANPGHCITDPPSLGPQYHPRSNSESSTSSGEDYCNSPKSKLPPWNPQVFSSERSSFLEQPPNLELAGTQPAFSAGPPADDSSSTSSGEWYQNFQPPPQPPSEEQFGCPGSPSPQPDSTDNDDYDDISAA
The description is as above.

Experiment [3] addresses T2, CD6 wild-type (CD6WT). Briefly: condition: only cells not activated with pervanadate; co-IP; E6.1 cells not activated (no pervanadate); same Triton X-100 lysis buffer; CD6 immunoprecipitated with mAb MEM98 on Protein A Sepharose; RasGAP detected by western blot.
The target in experiment [4] is T1, CD6 cytosolic deletion mutant CD6Δcyt. Briefly: co-IP; E6.1 cells not activated (no pervanadate); same Triton X-100 lysis buffer; CD6 immunoprecipitated with mAb MEM98 on Protein A Sepharose; RasGAP detected by western blot.

B1: Ras GTPase-activating protein 1 (RasGAP) (enzyme, UniProt P20936 1-1047)
chain: MMAAEAGSEEGGPVTAGAGGGGAAAGSSAYPAVCRVKIPAALPVAAAPYPGLVETGVAGTLGGGAALGSEFLGAGSVAGALGGAGLTGGGTAAGVAGAAAGVAGAAVAGPSGDMALTKLPTSLLAETLGPGGGFPPLPPPPYLPPLGAGLGTVDEGDSLDGPEYEEEEVAIPLTAPPTNQWYHGKLDRTIAEERLRQAGKSGSYLIRESDRRPGSFVLSFLSQMNVVNHFRIIAMCGDYYIGGRRFSSLSDLIGYYSHVSCLLKGEKLLYPVAPPEPVEDRRRVRAILPYTKVPDTDEISFLKGDMFIVHNELEDGWMWVTNLRTDEQGLIVEDLVEEVGREEDPHEGKIWFHGKISKQEAYNLLMTVGQVCSFLVRPSDNTPGDYSLYFRTNENIQRFKICPTPNNQFMMGGRYYNSIGDIIDHYRKEQIVEGYYLKEPVPMQDQEQVLNDTVDGKEIYNTIRRKTKDAFYKNIVKKGYLLKKGKGKRWKNLYFILEGSDAQLIYFESEKRATKPKGLIDLSVCSVYVVHDSLFGRPNCFQIVVQHFSEEHYIFYFAGETPEQAEDWMKGLQAFCNLRKSSPGTSNKRLRQVSSLVLHIEEAHKLPVKHFTNPYCNIYLNSVQVAKTHAREGQNPVWSEEFVFDDLPPDINRFEITLSNKTKKSKDPDILFMRCQLSRLQKGHATDEWFLLSSHIPLKGIEPGSLRVRARYSMEKIMPEEEYSEFKELILQKELHVVYALSHVCGQDRTLLASILLRIFLHEKLESLLLCTLNDREISMEDEATTLFRATTLASTLMEQYMKATATQFVHHALKDSILKIMESKQSCELSPSKLEKNEDVNTNLTHLLNILSELVEKIFMASEILPPTLRYIYGCLQKSVQHKWPTNTTMRTRVVSGFVFLRLICPAILNPRMFNIISDSPSPIAARTLILVAKSVQNLANLVEFGAKEPYMEGVNPFIKSNKHRMIMFLDELGNVPELPDTTEHSRTDLSRDLAALHEICVAHSDELRTLSNERGAQQHVLKKLLAITELLQQKQNQYTKTNDVR
B1: the binding entry in experiment [1] is reported as “no binding”; in experiment [2] it was “binds”; in experiment [3], “no binding”; in experiment [4] it was “no binding”.
